Here are results for 6 molecules from article PMC7950214.

No constants are given. Whether binding was seen depends on the method and setting. A result given as binding can be weak or reduced; the word gives no strength. For part of these data: Sequences can lack the tags named with a protein. For part of these data: Binding seen in cells or lysates may run through a third protein.

Assay [1] addresses T1, nGFP-MAX2 (Arabidopsis thaliana) (UniProt Q9SIM9).
T1 sequence: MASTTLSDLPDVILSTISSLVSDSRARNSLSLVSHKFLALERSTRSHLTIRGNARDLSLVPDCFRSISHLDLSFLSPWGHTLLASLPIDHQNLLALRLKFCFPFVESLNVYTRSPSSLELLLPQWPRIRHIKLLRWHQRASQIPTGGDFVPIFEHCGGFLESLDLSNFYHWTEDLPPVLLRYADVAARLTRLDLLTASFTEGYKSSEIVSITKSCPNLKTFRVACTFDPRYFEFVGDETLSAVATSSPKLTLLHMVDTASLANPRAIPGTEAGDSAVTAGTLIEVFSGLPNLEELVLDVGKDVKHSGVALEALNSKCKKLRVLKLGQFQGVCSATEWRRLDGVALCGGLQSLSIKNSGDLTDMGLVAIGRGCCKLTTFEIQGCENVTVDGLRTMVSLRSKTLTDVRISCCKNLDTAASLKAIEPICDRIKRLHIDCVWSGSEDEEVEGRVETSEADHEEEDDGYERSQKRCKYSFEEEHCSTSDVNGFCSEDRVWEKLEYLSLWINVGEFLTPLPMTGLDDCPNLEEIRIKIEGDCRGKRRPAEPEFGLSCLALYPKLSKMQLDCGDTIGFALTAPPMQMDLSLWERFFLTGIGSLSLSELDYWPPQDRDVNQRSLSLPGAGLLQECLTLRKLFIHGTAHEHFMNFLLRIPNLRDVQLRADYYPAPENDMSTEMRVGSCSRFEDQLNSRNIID
The assay can be described thus: split reporter; BiFC with nGFP and cGFP fusions (35S promoter) coexpressed in N. benthamiana leaves; confocal microscopy.

Assay [2] addresses PAPP5-BD (PAPP5 as yeast two-hybrid bait in pGILDA) (Arabidopsis thaliana). As to the kind of experiment: two-hybrid; LexA-based; bait in pGILDA, prey in pB42AD, S. cerevisiae EGY48; blue colonies on SD Gal/Raf -Ura-Trp-His with X-Gal; 10 μM rac-GR24 or 0.1% acetone in the medium to test its influence.
The target in assay [3] is PAPP5-GFP (Arabidopsis thaliana). As to the kind of experiment: co-IP; GFP-Trap-A on extracts of N. benthamiana leaves coexpressing the GFP and 3HA fusions; washes with 150 mM NaCl, 0.5% NP-40; anti-HA blot; leaves mock treated or injected with 10 μM rac-GR24.

Regarding “cGFP-PAPP5 (Arabidopsis thaliana) (enzyme)”, the binding result in assay [1] was “binds”.

B1: KAI2-AD (KAI2 as yeast two-hybrid prey in pB42AD) (receptor, UniProt Q9SZU7 1-270)
chain: MGVVEEAHNVKVIGSGEATIVLGHGFGTDQSVWKHLVPHLVDDYRVVLYDNMGAGTTNPDYFDFDRYSNLEGYSFDLIAILEDLKIESCIFVGHSVSAMIGVLASLNRPDLFSKIVMISASPRYVNDVDYQGGFEQEDLNQLFEAIRSNYKAWCLGFAPLAVGGDMDSIAVQEFSRTLFNMRPDIALSVGQTIFQSDMRQILPFVTVPCHILQSVKDLAVPVVVSEYLHANLGCESVVEVIPSDGHLPQLSSPDSVIPVILRHIRNDIAM
Turning to B1, the binding entry in assay [2] is “no binding”.

B2: MAX2ΔFBOX-AD (MAX2ΔFBOX as yeast two-hybrid prey in pB42AD) (domain or fragment, UniProt Q9SIM9 54-693)
chain: ARDLSLVPDCFRSISHLDLSFLSPWGHTLLASLPIDHQNLLALRLKFCFPFVESLNVYTRSPSSLELLLPQWPRIRHIKLLRWHQRASQIPTGGDFVPIFEHCGGFLESLDLSNFYHWTEDLPPVLLRYADVAARLTRLDLLTASFTEGYKSSEIVSITKSCPNLKTFRVACTFDPRYFEFVGDETLSAVATSSPKLTLLHMVDTASLANPRAIPGTEAGDSAVTAGTLIEVFSGLPNLEELVLDVGKDVKHSGVALEALNSKCKKLRVLKLGQFQGVCSATEWRRLDGVALCGGLQSLSIKNSGDLTDMGLVAIGRGCCKLTTFEIQGCENVTVDGLRTMVSLRSKTLTDVRISCCKNLDTAASLKAIEPICDRIKRLHIDCVWSGSEDEEVEGRVETSEADHEEEDDGYERSQKRCKYSFEEEHCSTSDVNGFCSEDRVWEKLEYLSLWINVGEFLTPLPMTGLDDCPNLEEIRIKIEGDCRGKRRPAEPEFGLSCLALYPKLSKMQLDCGDTIGFALTAPPMQMDLSLWERFFLTGIGSLSLSELDYWPPQDRDVNQRSLSLPGAGLLQECLTLRKLFIHGTAHEHFMNFLLRIPNLRDVQLRADYYPAPENDMSTEMRVGSCSRFEDQLNSRNIID
As for B2, the binding entry in assay [2] was “binds”.

B3: MAX2-AD (MAX2 as yeast two-hybrid prey in pB42AD) (protein, UniProt Q9SIM9 1-693)
chain: MASTTLSDLPDVILSTISSLVSDSRARNSLSLVSHKFLALERSTRSHLTIRGNARDLSLVPDCFRSISHLDLSFLSPWGHTLLASLPIDHQNLLALRLKFCFPFVESLNVYTRSPSSLELLLPQWPRIRHIKLLRWHQRASQIPTGGDFVPIFEHCGGFLESLDLSNFYHWTEDLPPVLLRYADVAARLTRLDLLTASFTEGYKSSEIVSITKSCPNLKTFRVACTFDPRYFEFVGDETLSAVATSSPKLTLLHMVDTASLANPRAIPGTEAGDSAVTAGTLIEVFSGLPNLEELVLDVGKDVKHSGVALEALNSKCKKLRVLKLGQFQGVCSATEWRRLDGVALCGGLQSLSIKNSGDLTDMGLVAIGRGCCKLTTFEIQGCENVTVDGLRTMVSLRSKTLTDVRISCCKNLDTAASLKAIEPICDRIKRLHIDCVWSGSEDEEVEGRVETSEADHEEEDDGYERSQKRCKYSFEEEHCSTSDVNGFCSEDRVWEKLEYLSLWINVGEFLTPLPMTGLDDCPNLEEIRIKIEGDCRGKRRPAEPEFGLSCLALYPKLSKMQLDCGDTIGFALTAPPMQMDLSLWERFFLTGIGSLSLSELDYWPPQDRDVNQRSLSLPGAGLLQECLTLRKLFIHGTAHEHFMNFLLRIPNLRDVQLRADYYPAPENDMSTEMRVGSCSRFEDQLNSRNIID
For B3, the binding result in assay [2] is given as “binds”.

B4: MAX2-3HA (protein, UniProt Q9SIM9 1-693)
chain: MASTTLSDLPDVILSTISSLVSDSRARNSLSLVSHKFLALERSTRSHLTIRGNARDLSLVPDCFRSISHLDLSFLSPWGHTLLASLPIDHQNLLALRLKFCFPFVESLNVYTRSPSSLELLLPQWPRIRHIKLLRWHQRASQIPTGGDFVPIFEHCGGFLESLDLSNFYHWTEDLPPVLLRYADVAARLTRLDLLTASFTEGYKSSEIVSITKSCPNLKTFRVACTFDPRYFEFVGDETLSAVATSSPKLTLLHMVDTASLANPRAIPGTEAGDSAVTAGTLIEVFSGLPNLEELVLDVGKDVKHSGVALEALNSKCKKLRVLKLGQFQGVCSATEWRRLDGVALCGGLQSLSIKNSGDLTDMGLVAIGRGCCKLTTFEIQGCENVTVDGLRTMVSLRSKTLTDVRISCCKNLDTAASLKAIEPICDRIKRLHIDCVWSGSEDEEVEGRVETSEADHEEEDDGYERSQKRCKYSFEEEHCSTSDVNGFCSEDRVWEKLEYLSLWINVGEFLTPLPMTGLDDCPNLEEIRIKIEGDCRGKRRPAEPEFGLSCLALYPKLSKMQLDCGDTIGFALTAPPMQMDLSLWERFFLTGIGSLSLSELDYWPPQDRDVNQRSLSLPGAGLLQECLTLRKLFIHGTAHEHFMNFLLRIPNLRDVQLRADYYPAPENDMSTEMRVGSCSRFEDQLNSRNIID
Turning to B4, the binding entry in assay [3] is given as “binds”.

B5: D14-AD (D14 as yeast two-hybrid prey in pB42AD) (receptor, UniProt Q9SQR3 1-267)
chain: MSQHNILEALNVRVVGTGDRILFLAHGFGTDQSAWHLILPYFTQNYRVVLYDLVCAGSVNPDYFDFNRYTTLDPYVDDLLNIVDSLGIQNCAYVGHSVSAMIGIIASIRRPELFSKLILIGFSPRFLNDEDYHGGFEEGEIEKVFSAMEANYEAWVHGFAPLAVGADVPAAVREFSRTLFNMRPDISLFVSRTVFNSDLRGVLGLVRVPTCVIQTAKDVSVPASVAEYLRSHLGGDTTVETLKTEGHLPQLSAPAQLAQFLRRALPR
In the case of B5, in assay [2], the binding entry was “no binding”.
